{"source": "the supplement of paper PMC8728848", "binders": {"B1": {"name": "Vd7LysM (Verticillium dahliae) (protein)", "chain": "RRGPEPKYPPAAGTSSYCSYWVDYEGDKSCSRVLEDNVVVLKDFARWNPTVGADCSGIKAGNSYCVEAFGEPEPIEVTTTTRAATTTTQPTATTTTFANGIATPQPTQSGMVTNCNKFHWIAEGVSCSQVISFQKITLADFVKWNPSVKSDCSGMWAGVNVCVGVVGSSTDTAKPTTTAPSNGVVTPQPTQPSMVTNCNKFHWIAKGVTCQQVISYQKISLADFVKWNPSVLSDCSGMWAEVQVCVGVIGSTPTTLATTTTTAGNGVSTPLPTQPGMVTNCAKFHWVAKGVTCNQIYSFQKITLEQFVSYNPTVKSDCSGMQAEVQVCVGLIAGTTPTTTRPPTTTAPGNGVSTPQPTQPGMVTNCAKFHWVAKGVTCNQIYSFQKITLEQFVSFNPTVKSDCTGMQAEVNVCVGLIGGNPTPTQTGNGIATPTPIQPGMVSNCKKFHWIAQGVTCQQVISFQKITLADFVKWNTGVGSDCRTMWAETNVCVGV"}}, "assay_in_all_cases": "glycan array binding signal (z-score within array); higher = stronger binding", "conditions_in_all_cases": "glycan notation: IUPAC condensed, linker removed", "key": {"Gal(b1-4)Glc": {"molecular_target": "Gal(b1-4)Glc", "procedure,_shortened": "(§1)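 The binding signal is a Z-score computed within each array and averaged over linkers. Arrays of the same protein sequence at different concentrations or buffers were also averaged together. Data originate from 3228 arrays in the Consortium for Functional Glycomics database, kept only where the protein sequence was available.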"}, "Gal(b1-4)Glc6S": {"molecular_target": "Gal(b1-4)Glc6S", "procedure,_shortened": "as §1"}, "Gal(b1-4)GlcNAc": {"molecular_target": "Gal(b1-4)GlcNAc", "procedure,_shortened": "as §1"}, "[1]": {"molecular_target": "Gal(b1-4)GlcNAc(a1-6)Gal(b1-4)GlcNAc", "procedure,_shortened": "as §1"}, "Gal(b1-4)GlcNAc(b1-2)Man": {"molecular_target": "Gal(b1-4)GlcNAc(b1-2)Man", "procedure,_shortened": "as §1"}, "[2]": {"molecular_target": "Gal(b1-4)GlcNAc(b1-2)Man(a1-3)Man(b1-4)GlcNAc(b1-4)GlcNAc", "procedure,_shortened": "as §1"}, "[3]": {"molecular_target": "Gal(b1-4)GlcNAc(b1-2)Man(a1-3)[Gal(b1-4)GlcNAc(b1-2)Man(a1-6)]Man(b1-4)GlcNAc(b1-4)GlcNAc", "procedure,_shortened": "as §1"}, "[4]": {"molecular_target": "Gal(b1-4)GlcNAc(b1-2)Man(a1-3)[Gal(b1-4)GlcNAc(b1-2)Man(a1-6)]Man(b1-4)GlcNAc(b1-4)[Fuc(a1-6)]GlcNAc", "procedure,_shortened": "as §1"}, "[5]": {"molecular_target": "Gal(b1-4)GlcNAc(b1-2)Man(a1-3)[Gal(b1-4)GlcNAc(b1-2)Man(a1-6)][Gal(b1-4)GlcNAc(b1-4)]Man(b1-4)GlcNAc(b1-4)[Fuc(a1-6)]GlcNAc", "procedure,_shortened": "as §1"}, "[6]": {"molecular_target": "Gal(b1-4)GlcNAc(b1-2)Man(a1-3)[Gal(b1-4)GlcNAc(b1-2)Man(a1-6)][GlcNAc(b1-4)]Man(b1-4)GlcNAc(b1-4)[Fuc(a1-6)]GlcNAc", "procedure,_shortened": "as §1"}, "[7]": {"molecular_target": "Gal(b1-4)GlcNAc(b1-2)Man(a1-3)[GlcNAc(b1-2)Man(a1-6)]Man(b1-4)GlcNAc(b1-4)GlcNAc", "procedure,_shortened": "as §1"}, "[8]": {"molecular_target": "Gal(b1-4)GlcNAc(b1-2)Man(a1-3)[GlcNAc(b1-4)][Gal(b1-4)GlcNAc(b1-2)Man(a1-6)]Man(b1-4)GlcNAc(b1-4)GlcNAc", "procedure,_shortened": "as §1"}, "[9]": {"molecular_target": "Gal(b1-4)GlcNAc(b1-2)Man(a1-3)[Man(a1-6)]Man(b1-4)GlcNAc(b1-4)GlcNAc", "procedure,_shortened": "as §1"}, "[10]": {"molecular_target": "Gal(b1-4)GlcNAc(b1-2)Man(a1-6)Man(b1-4)GlcNAc(b1-4)GlcNAc", "procedure,_shortened": "as §1"}, "[11]": {"molecular_target": "Gal(b1-4)GlcNAc(b1-2)Man(a1-6)[GlcNAc(b1-2)Man(a1-3)]Man(b1-4)GlcNAc(b1-4)GlcNAc", "procedure,_shortened": "as §1"}, "[12]": {"molecular_target": "Gal(b1-4)GlcNAc(b1-2)Man(a1-6)[Man(a1-3)]Man(b1-4)GlcNAc(b1-4)GlcNAc", "procedure,_shortened": "as §1"}, "[13]": {"molecular_target": "Gal(b1-4)GlcNAc(b1-2)[Gal(b1-4)GlcNAc(b1-4)]Man(a1-3)[Gal(b1-4)GlcNAc(b1-2)Man(a1-6)]Man(b1-4)GlcNAc(b1-4)GlcNAc", "procedure,_shortened": "as §1"}, "[14]": {"molecular_target": "Gal(b1-4)GlcNAc(b1-2)[Gal(b1-4)GlcNAc(b1-4)]Man(a1-3)[Gal(b1-4)GlcNAc(b1-2)[Gal(b1-4)GlcNAc(b1-6)]Man(a1-6)]Man(b1-4)GlcNAc(b1-4)GlcNAc", "procedure,_shortened": "as §1"}, "[15]": {"molecular_target": "Gal(b1-4)GlcNAc(b1-2)[Gal(b1-4)GlcNAc(b1-4)]Man(a1-3)[GlcNAc(b1-4)][Gal(b1-4)GlcNAc(b1-2)Man(a1-6)]Man(b1-4)GlcNAc(b1-4)GlcNAc", "procedure,_shortened": "as §1"}, "[16]": {"molecular_target": "Gal(b1-4)GlcNAc(b1-2)[Gal(b1-4)GlcNAc(b1-4)]Man(a1-3)[GlcNAc(b1-4)][Gal(b1-4)GlcNAc(b1-2)[Gal(b1-4)GlcNAc(b1-6)]Man(a1-6)]Man(b1-4)GlcNAc(b1-4)GlcNAc", "procedure,_shortened": "as §1"}, "[17]": {"molecular_target": "Gal(b1-4)GlcNAc(b1-2)[Gal(b1-4)GlcNAc(b1-6)]Man(a1-6)[Gal(b1-4)GlcNAc(b1-2)Man(a1-3)]Man(b1-4)GlcNAc(b1-4)GlcNAc", "procedure,_shortened": "as §1"}, "[18]": {"molecular_target": "Gal(b1-4)GlcNAc(b1-2)[Gal(b1-4)GlcNAc(b1-6)]Man(a1-6)[Gal(b1-4)GlcNAc(b1-2)Man(a1-3)]Man(b1-4)GlcNAc(b1-4)[Fuc(a1-6)]GlcNAc", "procedure,_shortened": "as §1"}}, "note": "This is one part of the list."}
{"binder": "B1", "values": [{"measurement": "glycan array binding signal (z-score)", "setting": "Gal(b1-4)Glc", "value": 0.306}, {"measurement": "glycan array binding signal (z-score)", "setting": "Gal(b1-4)Glc6S", "value": 0.592}, {"measurement": "glycan array binding signal (z-score)", "setting": "Gal(b1-4)GlcNAc", "value": -0.007}, {"measurement": "glycan array binding signal (z-score)", "setting": "[1]", "value": -0.326}, {"measurement": "glycan array binding signal (z-score)", "setting": "Gal(b1-4)GlcNAc(b1-2)Man", "value": -1.78}, {"measurement": "glycan array binding signal (z-score)", "setting": "[2]", "value": -0.846}, {"measurement": "glycan array binding signal (z-score)", "setting": "[3]", "value": -0.58}, {"measurement": "glycan array binding signal (z-score)", "setting": "[4]", "value": 0.126}, {"measurement": "glycan array binding signal (z-score)", "setting": "[5]", "value": -0.393}, {"measurement": "glycan array binding signal (z-score)", "setting": "[6]", "value": -0.224}, {"measurement": "glycan array binding signal (z-score)", "setting": "[7]", "value": -0.17}, {"measurement": "glycan array binding signal (z-score)", "setting": "[8]", "value": -0.397}, {"measurement": "glycan array binding signal (z-score)", "setting": "[9]", "value": -0.246}, {"measurement": "glycan array binding signal (z-score)", "setting": "[10]", "value": -0.12}, {"measurement": "glycan array binding signal (z-score)", "setting": "[11]", "value": 0.014}, {"measurement": "glycan array binding signal (z-score)", "setting": "[12]", "value": 0.789}, {"measurement": "glycan array binding signal (z-score)", "setting": "[13]", "value": -0.751}, {"measurement": "glycan array binding signal (z-score)", "setting": "[14]", "value": -0.651}, {"measurement": "glycan array binding signal (z-score)", "setting": "[15]", "value": -1.36}, {"measurement": "glycan array binding signal (z-score)", "setting": "[16]", "value": -0.818}, {"measurement": "glycan array binding signal (z-score)", "setting": "[17]", "value": -0.692}, {"measurement": "glycan array binding signal (z-score)", "setting": "[18]", "value": -0.464}]}
